# The source gives many values for each of these; only a part stands here.
# Test system: EpidermFT™ Skin Model (EFT-400) full thickness skin cultures
# Assay: Affymetrix GeneChip HG U133 Plus 2.0 microarray global gene expression, agent-exposed vs untreated skin cultures
# Type: cell-based, human
# [1] = 229271_x_at COL11A1, Salicin 0.5%, 24 hr
# [2] = 229287_at PCNX, Salicin 0.5%, 24 hr
# [3] = 229404_at TWIST2, Salicin 0.5%, 24 hr
# [4] = 229555_at GALNT5, Salicin 0.5%, 24 hr
# [5] = 229588_at DNAJC10, Salicin 0.5%, 24 hr
# [6] = 229868_s_at GDF15, Salicin 0.5%, 24 hr
# [7] = 229942_at BNC2, Salicin 0.5%, 24 hr
# [8] = 230031_at HSPA5, Salicin 0.5%, 24 hr
# [9] = 230123_at NECAP2, Salicin 0.5%, 24 hr
# [10] = 230207_s_at DOCK5, Salicin 0.5%, 24 hr
# [11] = 231824_at LARP2, Salicin 0.5%, 24 hr
# [12] = 235061_at PPM1K, Salicin 0.5%, 24 hr
# [13] = 235236_at LOC100131897, Salicin 0.5%, 24 hr
# [14] = 235338_s_at SETDB2, Salicin 0.5%, 24 hr
# [15] = 235359_at LRRC33, Salicin 0.5%, 24 hr
# [16] = 235391_at FAM92A1, Salicin 0.5%, 24 hr
# [17] = 235550_at MAP9, Salicin 0.5%, 24 hr
# [18] = 235706_at CPM, Salicin 0.5%, 24 hr
# [19] = 236129_at GALNT5, Salicin 0.5%, 24 hr
# [20] = 238417_at PGM2L1, Salicin 0.5%, 24 hr
# [21] = 238497_at TMEM136, Salicin 0.5%, 24 hr
# [22] = 238669_at PTGS1, Salicin 0.5%, 24 hr
# [23] = 238877_at EYA4, Salicin 0.5%, 24 hr
# [24] = 239261_s_at CORIN, Salicin 0.5%, 24 hr
# [25] = 239286_at CDH11, Salicin 0.5%, 24 hr
# [26] = 239468_at MKX, Salicin 0.5%, 24 hr
# [27] = 240728_at PLCB4, Salicin 0.5%, 24 hr
# [28] = 241372_at ZC3H6, Salicin 0.5%, 24 hr
# [29] = 242281_at GLUL, Salicin 0.5%, 24 hr
# [30] = 244246_at MIPOL1, Salicin 0.5%, 24 hr
# [31] = 244808_at GRAMD1A, Salicin 0.5%, 24 hr
# [32] = 244852_at DSEL, Salicin 0.5%, 24 hr
# [33] = 1552309_a_at NEXN, Salicin 0.5%, 24 hr
# [34] = 1554036_at ZBTB24, Salicin 0.5%, 24 hr
# [35] = 1554140_at WDR78, Salicin 0.5%, 24 hr
# [36] = 1554414_a_at OSGIN2, Salicin 0.5%, 24 hr
# [37] = 1554474_a_at MOXD1, Salicin 0.5%, 24 hr
# [38] = 1555279_at ARMC8, Salicin 0.5%, 24 hr
# [39] = 1555724_s_at TAGLN, Salicin 0.5%, 24 hr
# [40] = 1556113_at DKFZp451A211, Salicin 0.5%, 24 hr
# [41] = 1559060_a_at FNIP1, Salicin 0.5%, 24 hr
# [42] = 1559582_at RHOQ, Salicin 0.5%, 24 hr
# [43] = 1560007_at LOC645984, Salicin 0.5%, 24 hr
# [44] = 1570515_a_at FILIP1, Salicin 0.5%, 24 hr
structure (smiles),measurement,setting,value
"OCc1ccccc1O[C@@H]1O[C@H](CO)[C@@H](O)[C@H](O)[C@H]1O [Salicin, 2-(Hydroxymethyl)phenyl β-D-glucospyranoside]",Fold change,"228986_at OSBPL8, Salicin 0.5%, 24 hr",2.226
same,Direction,[1],up
same,Fold change,[1],2.182
same,Direction,[2],up
same,Fold change,[2],2.071
same,Direction,[3],up
same,Fold change,[3],2.072
same,Direction,[4],up
same,Fold change,[4],2.296
same,Direction,[5],up
same,Fold change,[5],2.229
same,Direction,[6],up
same,Fold change,[6],2.205
same,Direction,[7],up
same,Fold change,[7],2.062
same,Direction,[8],up
same,Fold change,[8],2.204
same,Direction,[9],up
same,Fold change,[9],2.23
same,Direction,[10],up
same,Fold change,[10],2.279
same,Direction,[11],up
same,Fold change,[11],2.044
same,Direction,[12],up
same,Fold change,[12],2.042
same,Direction,[13],up
same,Fold change,[13],2.285
same,Direction,[14],up
same,Fold change,[14],2.277
same,Direction,[15],up
same,Fold change,[15],2.045
same,Direction,[16],up
same,Fold change,[16],2.054
same,Direction,[17],up
same,Fold change,[17],2.202
same,Direction,[18],up
same,Fold change,[18],2.202
same,Direction,[19],up
same,Fold change,[19],2.184
same,Direction,[20],up
same,Fold change,[20],2.044
same,Direction,[21],up
same,Fold change,[21],2.168
same,Direction,[22],up
same,Fold change,[22],2.194
same,Direction,[23],up
same,Fold change,[23],2.267
same,Direction,[24],up
same,Fold change,[24],2.044
same,Direction,[25],up
same,Fold change,[25],2.204
same,Direction,[26],up
same,Fold change,[26],2.167
same,Direction,[27],up
same,Fold change,[27],2.207
same,Direction,[28],up
same,Fold change,[28],2.296
same,Direction,[29],up
same,Fold change,[29],2.061
same,Direction,[30],up
same,Fold change,[30],2.046
same,Direction,[31],up
same,Fold change,[31],2.261
same,Direction,[32],up
same,Fold change,[32],2.251
same,Direction,[33],up
same,Fold change,[33],2.177
same,Direction,[34],up
same,Fold change,[34],2.197
same,Direction,[35],up
same,Fold change,[35],2.159
same,Direction,[36],up
same,Fold change,[36],2.205
same,Direction,[37],up
same,Fold change,[37],2.165
same,Direction,[38],up
same,Fold change,[38],2.291
same,Direction,[39],up
same,Fold change,[39],2.184
same,Direction,[40],up
same,Fold change,[40],2.252
same,Direction,[41],up
same,Fold change,[41],2.284
same,Direction,[42],up
same,Fold change,[42],2.293
same,Direction,[43],up
same,Fold change,[43],2.286
same,Direction,[44],up
same,Fold change,[44],2.258
same,Direction,"direction of regulation (up/down) of the probe set / gene named in the row, Salicin 0.5% vs Untreated Control, 24 hr treatment",down

# Source: patent US20120034613A1, “Apparatus and Method for Testing Relationships Between Gene Expression and Physical Appearance of Skin” (NSE Products, Inc., priority 2010, published 2012)
